This is an account of results in publication PMC10803253, “Structural insights into the iron nitrogenase complex” (Nature Structural & Molecular Biology, 2023).

Amino acid sequences for entries named in this document (tags omitted).
UniProt Q07933: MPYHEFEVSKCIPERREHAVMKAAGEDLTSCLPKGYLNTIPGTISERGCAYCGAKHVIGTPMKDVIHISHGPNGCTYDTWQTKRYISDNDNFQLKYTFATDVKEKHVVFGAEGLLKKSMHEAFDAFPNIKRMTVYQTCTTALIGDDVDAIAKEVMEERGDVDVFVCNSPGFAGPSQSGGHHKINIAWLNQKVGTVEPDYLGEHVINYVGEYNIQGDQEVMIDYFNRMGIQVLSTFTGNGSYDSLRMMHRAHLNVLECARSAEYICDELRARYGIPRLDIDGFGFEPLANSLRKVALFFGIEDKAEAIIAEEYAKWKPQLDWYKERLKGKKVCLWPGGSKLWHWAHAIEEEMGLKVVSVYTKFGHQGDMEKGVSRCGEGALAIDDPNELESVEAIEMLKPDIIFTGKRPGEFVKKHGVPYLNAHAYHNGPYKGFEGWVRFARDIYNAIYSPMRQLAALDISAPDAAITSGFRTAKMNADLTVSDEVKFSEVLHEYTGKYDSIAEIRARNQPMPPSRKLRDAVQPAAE

The target of this experiment is AnfD, D subunit of the Fe nitrogenase catalytic component (Rhodobacter capsulatus) (Rhodobacter capsulatus) (UniProt Q07933). Nature of the experiment: condition: only with CHAPSO detergent (0.4% m/V) added before plunge freezing; cryo-EM structure; catalytic component Anf(DGK)2 alone with CHAPSO (0.4% m/V) added on the grid right before plunge freezing; 2.49 Å, C2 symmetry; both purified.

No constants are given. Whether binding was seen depends on the method and setting.

B1: AnfG, G subunit of the Fe nitrogenase catalytic component (Rhodobacter capsulatus) (protein, UniProt Q07934 1-115)
chain: MTDISEKLDPLVDYIMKNCLWQFNSRGWDRLKQNAGILSQTCEILCGEEPVHETAMDRCYWVDAVILSRAYKARFPWLMAMTKPEIKSLFKALHEKIDHLTVHGSLNTELTVPHY
With B1, the binding entry is listed as “no binding”.
